Laboratory results reported in PubChem BioAssay AID504834 (National Center for Advancing Translational Sciences (NCATS), 2011).
Hit rate of the full screen: of about 320,000 compounds, about 22,000 (6.9%) were called active. The inconclusive results got no clear call from the source; some entries with a clear call stand among them for comparison. The call rests on the fitted dose curve; in most records, active means well fitted inhibition curve with a large enough effect; inconclusive means small, poorly fitted or top-dose-only effect, or another doubt; inactive means no such curve, though single readings can be large or run the other way. Potencies of inconclusive entries are doubtful fits and often do not repeat.

Test: Primary qHTS for delayed death inhibitors of the malarial parasite plastid, 96 hour incubation
Settings: P. falciparum luciferase reporter growth; series mostly up to 28.7 µM
Outline: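 Delayed-death screen, second-generation endpoint: infected erythrocytes, 2% hematocrit, 0.05% parasitemia final; 96 hours at 37 C, 5% CO2; luciferase detection reagent; luminescence decrease equals reduced growth.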
Potency means the concentration at half of the fitted maximal effect.

Row | SMILES | Potency
1 | COc1ccc(OC)c(NC(=O)C(C)Oc2ccc(Br)cc2)c1 (centres undefined) | inconclusive: 0.0004 µM [inhibitor]
2 | COc1cccc(-c2nc(CS(=O)CC(=O)NC3CCCCC3)c(C)o2)c1 (centres undefined) | inconclusive: 10.4 µM [inhibitor, single point]
3 | CCNc1nc(N)c(C(=O)c2ccc(Cl)s2)s1 | inconclusive: 4.15 µM [inhibitor, full curve, poor fit]
4 | CCC(C)(C)C1CCc2[nH]nc(C(=O)NC3CCCC3)c2C1 (centres undefined) | inconclusive: 16.5 µM [inhibitor, partial curve, poor fit]
5 | O=C(NCc1cccs1)c1cccnc1SCCS(=O)(=O)c1ccc(C(F)(F)F)cn1 | inconclusive: 10.4 µM [inhibitor, partial curve]
6 | Cn1c(=O)n(CC(=O)N2CCOCC2)c2ccccc21 | inconclusive: 0.928 µM [inhibitor, partial curve, poor fit]
7 | CCOP(=S)(OCC)Oc1ccc2c(C)c(Cl)c(=O)oc2c1 | inconclusive: 19 µM [inhibitor, single point]
8 | CC(C)(C)[Si](OCC[C@@H]1C[C@@]1(C)[C@@H](NP(=O)(c1ccccc1)c1ccccc1)c1ccccc1)(c1ccccc1)c1ccccc1 | active: 2.33 µM
9 | CCOC(=O)c1c(C)[nH]c(C(=O)COC(=O)C(C)N2C(=O)C3CCCCC3C2=O)c1C (centres undefined) | inconclusive: 13.1 µM [inhibitor, partial curve, poor fit]
10 | O=C1NC(=Nc2ccc(O)cc2)S/C1=C/c1ccco1 | inconclusive: 7.38 µM [inhibitor, partial curve, poor fit]
11 | N/C(=N\OC(=O)c1cccs1)c1ccc(Cl)cc1 | inactive
12 | COc1ccc(C)cc1S(=O)(=O)Nc1cccc(SC)c1 | inconclusive: 11.7 µM [inhibitor, single point]
13 | COc1ccccc1CCC(=O)Nc1ccc2c(c1)CN(Cc1ccc(CO)o1)CC2 | inconclusive: 11.7 µM [inhibitor, single point]
14 | COc1ccccc1CN(C)CC(=O)Nc1ccc(Cl)cc1C(F)(F)F | inconclusive: 18.5 µM [inhibitor, single point]
15 | Cc1cc2oc(=O)cc(CN3CCN(S(=O)(=O)c4ccc5c(c4)OCCO5)CC3)c2cc1C | inconclusive: 18.5 µM [inhibitor, single point]
16 | Cc1nn(C)cc1S(=O)(=O)Nc1cccc(Cl)c1 | inconclusive: 10.4 µM [inhibitor, partial curve, poor fit]
17 | CC1=C(C(=O)Nc2ccccc2C(=O)NCCCN2CCN(C)CC2)SCCO1 | inactive
18 | CCCOc1ccc2c(c1)C(=NN=C(N)N)c1cc(OCCC)ccc1-2 | inactive
19 | Cc1nc2cc(NCc3ccccc3O)ccc2n1Cc1ccccc1 | inconclusive: 10.4 µM [inhibitor, single point]
21 | O=[N+]([O-])c1ccc(N2CCN(S(=O)(=O)c3ccc(Cl)c(Cl)c3)CC2)cc1NCCN1CCOCC1 | active: 6.57 µM
22 | O=C(CN1C(=O)c2ccccc2C1=O)c1ccccc1 | inactive

Row | SMILES | Potency
23 | CCN=C1SC(C(=O)Nc2cccc(Cl)c2)CC(=O)N1CC (centres undefined) | inconclusive: 4.15 µM [inhibitor, single point]
24 | c1coc(C2Nc3cccc4cccc(c34)N2)c1 | inactive
25 | COc1cccc2cc(C(=O)Nc3ccccc3C(=O)N3CCOCC3)oc12 | inconclusive: 3.29 µM [inhibitor, single point]
26 | O=C(CCN1C(=O)/C(=C/c2cccs2)SC1=S)Nc1ccccn1 | inconclusive: 18.5 µM [inhibitor, single point]
27 | NS(=O)(=O)c1ccc(-n2ncc3c(=O)[nH]c(SCC(=O)Nc4nccs4)nc32)cc1 | inconclusive: 18.5 µM [inhibitor, single point]
28 | CCCC(=O)Nc1cc(-c2nnc(OC)c3ccccc23)ccc1N1CCCCC1 | inactive
29 | Cc1ccccc1NC(=O)Cc1nc(COC(=O)c2cccc([N+](=O)[O-])c2)cs1 | active: 4.15 µM
30 | COc1ccc(NC(=O)C2C3C=CC(O3)C2C(=O)NCc2cccnc2)cc1 (centres undefined) | active: 10.4 µM
31 | CCc1ccc(NC(=O)C(C)OC(=O)c2ccc(NS(=O)(=O)c3ccc(C)c([N+](=O)[O-])c3)cc2)cc1 (centres undefined) | inactive
32 | O=C(OC(C(=O)Nc1cc(Cl)cc(Cl)c1)c1ccccc1)C1=COCCO1 (centres undefined) | inactive
33 | Cc1ccc(NC(=O)c2ccc3c(c2)C(=O)N(CC2CCCO2)C3=O)cc1C (centres undefined) | inactive
34 | C=CCn1c(SCC(=O)N(C(C)CC)C2CCS(=O)(=O)C2)nc2ccccc2c1=O (centres undefined) | active: 5.86 µM
35 | Cc1cc(Br)ccc1S(=O)(=O)NCc1ccccc1 | inconclusive: 18.5 µM [inhibitor, single point]
36 | COc1ccc(NC(=O)CN(C)C(=O)c2cn(-c3ccccc3)nc2-c2cccs2)cc1 | inconclusive: 18.5 µM [inhibitor, single point]
37 | COc1ccc(CNC(=O)CCCn2nc(C)c3c(C)n(-c4ccc(C)cc4)nc3c2=O)cc1OC | inconclusive: 10.4 µM [inhibitor, single point]
38 | Cc1nnc(NC(=O)CCC(=O)N2CCN(CCc3ccccc3)CC2)s1 | inconclusive: 2.62 µM [inhibitor, full curve, poor fit]
39 | CC(=O)Nc1nonc1-c1nc2ccccc2n1Cc1nnc(C)o1 | inactive
40 | O=C(Nc1ccc(S(=O)(=O)N2CCOCC2)cc1)c1ccco1 | inactive
41 | COc1cc(OC)c(C(=O)/C=C/c2ccc(OCc3ccccc3)c(OC)c2)c(OC)c1 | inconclusive: 10.4 µM [inhibitor, partial curve, poor fit]
42 | O=C(Nc1cccc(Cl)c1)N1CCN(c2ncccn2)CC1 | inactive
43 | Cc1cc(C(=O)CN2C(=O)C(=O)N(Cc3ccccc3)C2=O)c(C)n1CC1COc2ccccc2O1 (centres undefined) | inconclusive: 18.5 µM [inhibitor, single point]
44 | CCOc1ccc(NC(=O)CN(C)C(=O)c2c(-c3ccccc3)noc2C)cc1OCC | inconclusive: 8.28 µM [inhibitor, partial curve]

From compound 29 up to 35, copied from above:
Row | SMILES | Potency
29 | Cc1ccccc1NC(=O)Cc1nc(COC(=O)c2cccc([N+](=O)[O-])c2)cs1 | active: 4.15 µM
30 | COc1ccc(NC(=O)C2C3C=CC(O3)C2C(=O)NCc2cccnc2)cc1 (centres undefined) | active: 10.4 µM
31 | CCc1ccc(NC(=O)C(C)OC(=O)c2ccc(NS(=O)(=O)c3ccc(C)c([N+](=O)[O-])c3)cc2)cc1 (centres undefined) | inactive
32 | O=C(OC(C(=O)Nc1cc(Cl)cc(Cl)c1)c1ccccc1)C1=COCCO1 (centres undefined) | inactive
33 | Cc1ccc(NC(=O)c2ccc3c(c2)C(=O)N(CC2CCCO2)C3=O)cc1C (centres undefined) | inactive
34 | C=CCn1c(SCC(=O)N(C(C)CC)C2CCS(=O)(=O)C2)nc2ccccc2c1=O (centres undefined) | active: 5.86 µM
35 | Cc1cc(Br)ccc1S(=O)(=O)NCc1ccccc1 | inconclusive: 18.5 µM [inhibitor, single point]
